Consider one sequence from article PMC8384837.

Substitutions are numbered along the chain they refer to. Some of the results follow. At the low end of the ranking the order means little.

Settings in all cases: yeast three-hybrid, YBZ-1, SC-Leu-His + 0.5 mM 3-AT, 4 days
In assay [1] the target is T1, PUM1 PUF domain R3-AIR C935A + R936I + Q939R (UniProt Q14671).
T1 sequence: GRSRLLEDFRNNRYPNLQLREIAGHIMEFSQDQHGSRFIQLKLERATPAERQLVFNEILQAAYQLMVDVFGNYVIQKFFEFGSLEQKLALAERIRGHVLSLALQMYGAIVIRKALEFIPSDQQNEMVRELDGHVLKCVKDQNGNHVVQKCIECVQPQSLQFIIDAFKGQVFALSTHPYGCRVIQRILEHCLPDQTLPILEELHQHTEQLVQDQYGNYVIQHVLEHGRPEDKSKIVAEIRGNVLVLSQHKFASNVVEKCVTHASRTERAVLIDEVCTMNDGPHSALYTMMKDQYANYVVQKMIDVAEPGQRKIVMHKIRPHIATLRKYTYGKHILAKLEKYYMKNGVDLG

In assay [2] the target is T2, PUM1 PUF domain R3-FCM C935F + R936C + Q939M (UniProt Q14671).
T2 sequence: T1 sequence with A108F, I109C, R112M

Assay [3] concerns the target T3, PUM1 PUF domain R3-FRW C935F + Q939W (UniProt Q14671).
T3 sequence: T1 sequence with A108F, I109R, R112W

Assay [4] has as its target T4, PUM1 PUF domain R3-FSG C935F + R936S + Q939G (UniProt Q14671).
T4 sequence: T1 sequence with A108F, I109S, R112G

The target in assay [5] is T5, PUM1 PUF domain R3-FSN C935F + R936S + Q939N (UniProt Q14671).
T5 sequence: T1 sequence with A108F, I109S, R112N

For assay [6], the target named is T6, PUM1 PUF domain R3-LNA C935L + R936N + Q939A (UniProt Q14671).
T6 sequence: T1 sequence with A108L, I109N, R112A

Assay [7] addresses T7, PUM1 PUF domain R3-LNG C935L + R936N + Q939G (UniProt Q14671).
T7 sequence: T1 sequence with A108L, I109N, R112G

Assay [8] addresses T8, PUM1 PUF domain R3-LSE C935L + R936S + Q939E (UniProt Q14671).
T8 sequence: T1 sequence with A108L, I109S, R112E

In assay [9] the target is T9, PUM1 PUF domain R3-LSN C935L + R936S + Q939N (UniProt Q14671).
T9 sequence: T1 sequence with A108L, I109S, R112N

In assay [10] the target is T10, PUM1 PUF domain R3-LSQ C935L + R936S (UniProt Q14671).
T10 sequence: T1 sequence with A108L, I109S, R112Q

The target in assay [11] is T11, PUM1 PUF domain R3-LSV C935L + R936S + Q939V (UniProt Q14671).
T11 sequence: T1 sequence with A108L, I109S, R112V

Assay [12] concerns the target T12, PUM1 PUF domain R3-MCG C935M + R936C + Q939G (UniProt Q14671).
T12 sequence: T1 sequence with A108M, I109C, R112G

Assay [13] has as its target T13, PUM1 PUF domain R3-NPG C935N + R936P + Q939G (UniProt Q14671).
T13 sequence: T1 sequence with A108N, I109P, R112G

Assay [14] has as its target T14, PUM1 PUF domain R3-QPE C935Q + R936P + Q939E (UniProt Q14671).
T14 sequence: T1 sequence with A108Q, I109P, R112E

In assay [15] the target is T15, PUM1 PUF domain R3-QRV C935Q + Q939V (UniProt Q14671).
T15 sequence: T1 sequence with A108Q, I109R, R112V

Assay [16] deals with T16, PUM1 PUF domain R3-RAH C935R + R936A + Q939H (UniProt Q14671).
T16 sequence: T1 sequence with A108R, I109A, R112H

Assay [17] has as its target T17, PUM1 PUF domain R3-RAM C935R + R936A + Q939M (UniProt Q14671).
T17 sequence: T1 sequence with A108R, I109A, R112M

Assay [18] addresses T18, PUM1 PUF domain R3-RCD C935R + R936C + Q939D (UniProt Q14671).
T18 sequence: T1 sequence with A108R, I109C, R112D

Assay [19] has as its target T19, PUM1 PUF domain R3-RIA C935R + R936I + Q939A (UniProt Q14671).
T19 sequence: T1 sequence with A108R, R112A

In assay [20] the target is T20, PUM1 PUF domain R3-RIR C935R + R936I + Q939R (UniProt Q14671).
T20 sequence: T1 sequence with A108R

With “GGCUAGAACUAGUGGAUCCCCCGGCGCCCGGCGGCUCGAGCCCGGGUAAGUGUAAAUAGUCUGCAUGCCGCCGGGCGCCAUGCCUGCAGGUCGACUCUAGAAAACAUG”, the binding signal (log2 enrichment (interaction score)) in assay [1] is less than -6.84; in [2] it was less than -6.81; in [3] it was less than -8; in assay [4], less than -10.6; in [5], less than -6.8; in assay [6], less than -7.98. In addition, the binding signal (log2 enrichment (interaction score)) in assay [7] was less than -8.8; in [8], less than -10.1; in assay [9], less than -7.38; in assay [10] it was less than -8.48; in assay [11], -6.99; in assay [12], less than -7.31. Further, the binding signal (log2 enrichment (interaction score)) is less than -6.92 in assay [13]; less than -7.9 in assay [14]; less than -7.29 in [15]; less than -8.2 in [16]; less than -7.39 in assay [17]; less than -7.26 in [18]. Besides, the binding signal (log2 enrichment (interaction score)) in [19] was less than -7.17; in assay [20], less than -9.57.
